PubChem BioAssay AID743121, NCATS, 2013
The whole screen tested about 26,000 reagents; shown is an unselected part. Over the whole deposit, 167 (0.63%) are marked active. 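Calls are per gene from RSA p-values that are not deposited; an individual active-marked siRNA can sensitise only weakly.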

- Aim: 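Partners whose loss is lethal together with topoisomerase I blockade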 (primary screen)
- Cells: MDA-MB-231 cells, a human breast cancer line
- Reagent: single siRNA against human genes, 20 nM siRNA (0.8 pmol per well)
- Duration: 120 h (drug added 48 h after transfection, read 72 h later)
- Treatment: camptothecin 20 nM (about EC30) for 72 h; vehicle 0.1% DMSO in parallel plates
- Read-out: 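CellTiter-Glo ATP signal, scaled to control siRNA as percent viability; sensitisation given as log2 of untreated divided by camptothecin-treated viability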
- Scale: log2 vehicle/camptothecin viability: higher = stronger sensitisation to camptothecin; viability with camptothecin and viability without drug: higher = more viable cells
- Rule for the call: 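Each gene scored by redundant siRNA activity (RSA) over its individual siRNA ratios; a gene is called active at p < 0.001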

| gene | PubChem SID | log2 vehicle/camptothecin viability | viability with camptothecin (% of control) | viability without drug (% of control) | activity call |
| --- | --- | --- | --- | --- | --- |
| CDKL5 (cyclin dependent kinase like 5) | SID164390205 | -0.249 | 123 | 103 | inactive |
| CDKL5 (cyclin dependent kinase like 5) | SID164390207 | 0.0558 | 60 | 62.3 | inactive |
| CDKL5 (cyclin dependent kinase like 5) | SID164390210 | -0.101 | 92.7 | 86.4 | inactive |
| CDKL5 (cyclin dependent kinase like 5) | SID164390211 | -0.499 | 67.9 | 48 | inactive |
| GPR162 (G protein-coupled receptor 162) | SID164463122 | -0.0554 | 49.6 | 47.7 | inactive |
| GPR162 (G protein-coupled receptor 162) | SID164463124 | -0.234 | 113 | 96.1 | inactive |
| GPR162 (G protein-coupled receptor 162) | SID164463128 | -0.349 | 75.8 | 59.5 | inactive |
| GPR162 (G protein-coupled receptor 162) | SID164463130 | -0.0306 | 28.7 | 28.1 | inactive |
| PAM (peptidylglycine alpha-amidating monooxygenase) | SID164379417 | -0.367 | 88.5 | 68.6 | inactive |
| PAM (peptidylglycine alpha-amidating monooxygenase) | SID164379420 | -0.192 | 71 | 62.1 | inactive |
| PAM (peptidylglycine alpha-amidating monooxygenase) | SID164379421 | 0.0791 | 113 | 120 | inactive |
| PAM (peptidylglycine alpha-amidating monooxygenase) | SID164379424 | -0.0472 | 82.8 | 80.1 | inactive |
| RAB28 (RAB28, member RAS oncogene family) | SID164403328 | -0.183 | 105 | 92.1 | inactive |
| RAB28 (RAB28, member RAS oncogene family) | SID164403329 | -0.523 | 86.6 | 60.3 | inactive |
| RAB28 (RAB28, member RAS oncogene family) | SID164403332 | -1.08 | 14.4 | 6.79 | inactive |
| RAB28 (RAB28, member RAS oncogene family) | SID164403333 | 0.297 | 73.7 | 90.5 | inactive |
| SMAD2 (SMAD family member 2) | SID164374487 | -0.292 | 84.5 | 69 | inactive |
| SMAD2 (SMAD family member 2) | SID164374488 | -0.302 | 52.7 | 42.7 | inactive |
| SMAD2 (SMAD family member 2) | SID164374489 | -0.213 | 73.9 | 63.8 | inactive |
| SMAD2 (SMAD family member 2) | SID164374490 | -0.245 | 61.3 | 51.7 | inactive |
| PPP3R1 (protein phosphatase 3 regulatory subunit B, alpha) | SID164382299 | -0.381 | 67.3 | 51.7 | inactive |
| PPP3R1 (protein phosphatase 3 regulatory subunit B, alpha) | SID164382301 | -0.501 | 92.8 | 65.6 | inactive |
| PPP3R1 (protein phosphatase 3 regulatory subunit B, alpha) | SID164382302 | 0.597 | 34.3 | 51.9 | inactive |
| PPP3R1 (protein phosphatase 3 regulatory subunit B, alpha) | SID164382303 | -0.256 | 40.3 | 33.8 | inactive |
| BAG3 (BAG cochaperone 3) | SID164404365 | -0.216 | 74.5 | 64.2 | inactive |
| BAG3 (BAG cochaperone 3) | SID164404366 | 0.0737 | 85.8 | 90.3 | inactive |
| BAG3 (BAG cochaperone 3) | SID164404368 | -0.145 | 96.5 | 87.3 | inactive |
| BAG3 (BAG cochaperone 3) | SID164404369 | 0.0444 | 73.9 | 76.2 | inactive |
| TDP1 (tyrosyl-DNA phosphodiesterase 1) | SID164486719 | 1.7 | 6.64 | 21.5 | inactive |
| TDP1 (tyrosyl-DNA phosphodiesterase 1) | SID164486723 | -0.0966 | 123 | 115 | inactive |
| TDP1 (tyrosyl-DNA phosphodiesterase 1) | SID164486724 | -0.0602 | 43.4 | 41.6 | inactive |
| TDP1 (tyrosyl-DNA phosphodiesterase 1) | SID164486725 | -0.0916 | 78.1 | 73.3 | inactive |
| REM1 (RRAD and GEM like GTPase 1) | SID164464529 | -0.107 | 107 | 99.1 | inactive |
| REM1 (RRAD and GEM like GTPase 1) | SID164464531 | 0.0818 | 102 | 108 | inactive |
| REM1 (RRAD and GEM like GTPase 1) | SID164464532 | -0.463 | 72.9 | 52.9 | inactive |
| REM1 (RRAD and GEM like GTPase 1) | SID164464533 | -0.367 | 74.7 | 57.9 | inactive |
| PLA2G3 (phospholipase A2 group III) | SID164469710 | -0.538 | 65 | 44.7 | inactive |
| PLA2G3 (phospholipase A2 group III) | SID164469712 | 0.669 | 56.6 | 90.1 | inactive |
| PLA2G3 (phospholipase A2 group III) | SID164469713 | -0.0233 | 47.9 | 47.2 | inactive |
| PLA2G3 (phospholipase A2 group III) | SID164469715 | -0.245 | 35.6 | 30 | inactive |
| NDC80 (NDC80 kinetochore complex component) | SID164410756 | -0.545 | 36.5 | 25 | inactive |
| NDC80 (NDC80 kinetochore complex component) | SID164410757 | 0.45 | 33.6 | 45.8 | inactive |
| NDC80 (NDC80 kinetochore complex component) | SID164410758 | -0.0799 | 21.9 | 20.7 | inactive |
| NDC80 (NDC80 kinetochore complex component) | SID164410760 | -0.493 | 29.8 | 21.1 | inactive |
| AKR1B1 (aldo-keto reductase family 1 member B) | SID164353059 | -0.359 | 83.6 | 65.2 | inactive |
| AKR1B1 (aldo-keto reductase family 1 member B) | SID164353060 | -0.185 | 62.2 | 54.7 | inactive |
| AKR1B1 (aldo-keto reductase family 1 member B) | SID164353061 | -0.226 | 87 | 74.4 | inactive |
| AKR1B1 (aldo-keto reductase family 1 member B) | SID164353064 | -0.339 | 77.7 | 61.4 | inactive |
| KLK1 (kallikrein 1) | SID164372885 | -0.177 | 125 | 111 | inactive |
| KLK1 (kallikrein 1) | SID164372889 | -0.437 | 84 | 62 | inactive |
| KLK1 (kallikrein 1) | SID164372891 | -0.439 | 71.5 | 52.7 | inactive |
| DPF1 (double PHD fingers 1) | SID164396453 | -0.163 | 88.7 | 79.2 | inactive |
| DPF1 (double PHD fingers 1) | SID164396457 | 0.226 | 71 | 83 | inactive |
| DPF1 (double PHD fingers 1) | SID164396458 | -0.24 | 68.8 | 58.2 | inactive |
| DPF1 (double PHD fingers 1) | SID164396459 | 0.0258 | 105 | 107 | inactive |
| HERC6 | SID164482130 | -0.0416 | 90.6 | 88 | inactive |
| HERC6 | SID164482132 | -0.445 | 48.1 | 35.4 | inactive |
| HERC6 | SID164482133 | -0.0728 | 83.6 | 79.5 | inactive |
| HERC6 | SID164482134 | -0.441 | 71.2 | 52.4 | inactive |
| IGF2R (insulin like growth factor 2 receptor) | SID164370996 | -0.0691 | 76.3 | 72.8 | inactive |
| IGF2R (insulin like growth factor 2 receptor) | SID164370998 | -0.249 | 40.3 | 33.9 | inactive |
| IGF2R (insulin like growth factor 2 receptor) | SID164370999 | -0.224 | 25.1 | 21.5 | inactive |
| IGF2R (insulin like growth factor 2 receptor) | SID164371002 | -0.213 | 64.2 | 55.4 | inactive |
| UBQLNL (ubiquilin like) | SID164573004 | -0.081 | 72 | 68.1 | inactive |
| UBQLNL (ubiquilin like) | SID164573005 | -0.0891 | 22.2 | 20.9 | inactive |
| UBQLNL (ubiquilin like) | SID164573006 | 0.535 | 44.8 | 64.9 | inactive |
| UBQLNL (ubiquilin like) | SID164573008 | -0.0715 | 88 | 83.7 | inactive |
| NME1 (NME/NM23 nucleoside diphosphate kinase 1) | SID164378089 | 0.0632 | 89.5 | 93.5 | inactive |
| NME1 (NME/NM23 nucleoside diphosphate kinase 1) | SID164378093 | 0.033 | 71.8 | 73.5 | inactive |
| NME1 (NME/NM23 nucleoside diphosphate kinase 1) | SID164378095 | -0.346 | 112 | 88 | inactive |
| NME1 (NME/NM23 nucleoside diphosphate kinase 1) | SID164378096 | -0.355 | 93.2 | 72.9 | inactive |

8 entries from above, reformatted.
gene | PubChem SID | log2 vehicle/camptothecin viability | viability with camptothecin (% of control) | viability without drug (% of control) | activity call
SMAD2 (SMAD family member 2) | SID164374488 | -0.302 | 52.7 | 42.7 | inactive
SMAD2 (SMAD family member 2) | SID164374489 | -0.213 | 73.9 | 63.8 | inactive
SMAD2 (SMAD family member 2) | SID164374490 | -0.245 | 61.3 | 51.7 | inactive
PPP3R1 (protein phosphatase 3 regulatory subunit B, alpha) | SID164382299 | -0.381 | 67.3 | 51.7 | inactive
PPP3R1 (protein phosphatase 3 regulatory subunit B, alpha) | SID164382301 | -0.501 | 92.8 | 65.6 | inactive
PPP3R1 (protein phosphatase 3 regulatory subunit B, alpha) | SID164382302 | 0.597 | 34.3 | 51.9 | inactive
PPP3R1 (protein phosphatase 3 regulatory subunit B, alpha) | SID164382303 | -0.256 | 40.3 | 33.8 | inactive
BAG3 (BAG cochaperone 3) | SID164404365 | -0.216 | 74.5 | 64.2 | inactive
